These are yes or no findings as the source states them, for the method shown. Binding seen in cells or lysates may run through a third protein. Some entries that bind do so weakly or less than the wild type.

Amino acid sequences for entries named in this document (tags omitted). Residues count along the entry.
UniProt Q9NYZ4, residues 17-499: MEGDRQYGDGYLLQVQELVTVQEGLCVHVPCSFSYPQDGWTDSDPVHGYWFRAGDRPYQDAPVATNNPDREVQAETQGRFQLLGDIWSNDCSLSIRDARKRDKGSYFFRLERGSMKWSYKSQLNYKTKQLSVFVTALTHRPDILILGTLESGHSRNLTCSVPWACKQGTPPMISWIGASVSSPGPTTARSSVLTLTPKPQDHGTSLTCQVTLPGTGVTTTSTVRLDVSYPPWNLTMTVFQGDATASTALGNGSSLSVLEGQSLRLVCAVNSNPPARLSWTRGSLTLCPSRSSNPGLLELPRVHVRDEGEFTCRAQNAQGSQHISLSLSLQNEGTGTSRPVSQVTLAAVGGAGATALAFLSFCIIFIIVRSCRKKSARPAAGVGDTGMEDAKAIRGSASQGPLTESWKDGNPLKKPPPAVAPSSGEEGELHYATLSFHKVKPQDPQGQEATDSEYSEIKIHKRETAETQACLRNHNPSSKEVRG
UniProt P20491, residues 19-86: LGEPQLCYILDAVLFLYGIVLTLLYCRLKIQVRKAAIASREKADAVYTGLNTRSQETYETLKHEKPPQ
UniProt P25911: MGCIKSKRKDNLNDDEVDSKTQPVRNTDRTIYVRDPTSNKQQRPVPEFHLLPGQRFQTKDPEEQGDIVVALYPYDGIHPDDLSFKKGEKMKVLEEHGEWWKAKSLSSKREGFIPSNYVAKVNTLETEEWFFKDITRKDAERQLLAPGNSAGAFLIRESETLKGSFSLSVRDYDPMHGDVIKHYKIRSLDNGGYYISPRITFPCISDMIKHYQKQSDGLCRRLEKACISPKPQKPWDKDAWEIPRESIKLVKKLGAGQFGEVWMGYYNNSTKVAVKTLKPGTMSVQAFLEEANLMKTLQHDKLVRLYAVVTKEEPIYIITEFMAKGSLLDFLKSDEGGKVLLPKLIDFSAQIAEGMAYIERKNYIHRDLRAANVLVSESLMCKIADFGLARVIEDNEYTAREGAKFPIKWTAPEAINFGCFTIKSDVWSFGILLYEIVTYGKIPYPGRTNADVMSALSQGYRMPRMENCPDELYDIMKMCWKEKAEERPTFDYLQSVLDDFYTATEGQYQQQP

The target in test [1] is Siglec-8 expressed in bone marrow mast cells from Siglec-8 transgenic mice (human) (UniProt Q9NYZ4). In words: co-IP; anti-Siglec-8 polyclonal rabbit antibody and Protein A/G beads on S8-BMMC lysate, isotype IP as control; blot with anti-Lyn.
In the next test the target is FcεRIγ-HA (UniProt P20491). The test can be described thus: co-IP; anti-HA magnetic agarose beads on lysates of unstimulated BMMC transfected with Siglec-8-FLAG and FcεRIγ-HA; blot with anti-FLAG.

In the case of “Src kinase Lyn (from UniProt P25911 1-512) (enzyme)”, in test [1], the binding result is given as “binds”.
As for “wild-type full-length Siglec-8 fused with an N-terminal FLAG tag (from UniProt Q9NYZ4 17-499) (receptor)”, the binding entry in the test with FcεRIγ-HA was “binds”.
